The target in experiment [1] is NF-κB p65 expressed from plasmid pP65 (pcDNA3.1-p65) (UniProt Q04206). The experiment is described as follows: co-IP; 293T cells transfected with pEV or pP65, infected with bRSV (MOI 1) or mock infected, 24 h p.i.; RIPA lysates precleared, incubated with rabbit anti-p65 antibody overnight at 4°C, protein A magnetic beads, five washes with PBS-T; immunoblot with anti-p65, anti-N, anti-P; beads alone as control. In general terms: A western blot detects proteins with antibodies after separation by electrophoresis.

Amino acid sequences for entries named in this document (tags omitted).
UniProt Q04206: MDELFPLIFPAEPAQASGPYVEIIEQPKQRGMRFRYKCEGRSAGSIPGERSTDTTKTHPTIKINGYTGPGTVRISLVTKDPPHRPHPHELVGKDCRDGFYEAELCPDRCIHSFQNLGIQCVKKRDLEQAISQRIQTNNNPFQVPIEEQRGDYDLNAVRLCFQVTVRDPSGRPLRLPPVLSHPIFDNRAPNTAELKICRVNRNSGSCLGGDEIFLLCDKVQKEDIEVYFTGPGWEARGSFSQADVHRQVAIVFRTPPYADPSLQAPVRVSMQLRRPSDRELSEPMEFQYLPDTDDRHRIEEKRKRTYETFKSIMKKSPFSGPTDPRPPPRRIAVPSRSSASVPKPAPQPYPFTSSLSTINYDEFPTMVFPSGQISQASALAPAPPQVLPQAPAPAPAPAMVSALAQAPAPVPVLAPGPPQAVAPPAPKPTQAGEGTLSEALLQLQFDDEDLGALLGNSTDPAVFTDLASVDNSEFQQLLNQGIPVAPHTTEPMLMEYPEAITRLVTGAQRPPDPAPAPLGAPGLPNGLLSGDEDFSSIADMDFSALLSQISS
UniProt P22677: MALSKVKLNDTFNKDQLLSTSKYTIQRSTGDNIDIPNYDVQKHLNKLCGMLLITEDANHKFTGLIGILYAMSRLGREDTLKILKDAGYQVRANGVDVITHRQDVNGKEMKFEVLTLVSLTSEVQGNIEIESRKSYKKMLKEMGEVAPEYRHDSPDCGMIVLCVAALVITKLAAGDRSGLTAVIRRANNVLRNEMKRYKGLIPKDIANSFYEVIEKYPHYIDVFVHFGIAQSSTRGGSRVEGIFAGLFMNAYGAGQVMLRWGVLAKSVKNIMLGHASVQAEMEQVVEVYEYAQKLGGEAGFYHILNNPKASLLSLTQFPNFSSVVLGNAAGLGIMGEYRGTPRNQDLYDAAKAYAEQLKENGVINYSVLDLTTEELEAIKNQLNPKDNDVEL

In experiment [2] the target is NF-κB subunit p65 (endogenous, 293T cells) (human (endogenous in 293T)) (UniProt Q04206). The experiment is described as above.

Our source for the binding values is article PMC7592213.

No constants are given. Whether binding was seen depends on the method and setting. Binding seen in cells or lysates may run through a third protein. Some results given as binding are weak or reduced against the parent protein; the word gives no strength.

For “bovine respiratory syncytial virus nucleoprotein (N protein) (from UniProt P22677 1-391)”, the binding result in experiment [1] and in experiment [2] was “binds” in each case.

B1: bovine respiratory syncytial virus phosphoprotein (P protein) (protein, UniProt P33454 1-241)
chain: MEKFAPEFHGEDANTKATKFLESLKGKFTSSKDSRKKDSIISVNSIDIELPKESPITSTNHNINQPSEINDTIAANQVHIRKPLVSFKEELPSSENPFTKLYKETIETFDNNEEESSYSYDEINDQTNDNITARLDRIDEKLSEIIGMLHTLVVASAGPTAARDGIRDAMVGLREEMIEKIRSEALMTNDRLEAMARLRDEESEKMTKDTSDEVKLTPTSEKLNMVLEDESSDNDLSLEDF
Turning to B1, the binding entry in experiment [1] and in experiment [2] was “binds” each time.
